# Values from PubChem BioAssay AID686943 (Drosophila RNAi Screening Center, 2013)
# Aim: 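Search across the genome for regulators of signalling from receptor tyrosine kinase to ERK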 (primary screen)
# Cell system: Drosophila S2R+ haemocyte-like cells expressing YFP-tagged ERK (Rolled)
# Reagent: long dsRNA against Drosophila genes
# Treatment: insulin stimulation versus unstimulated cells; dose and duration not given
# Read-out: 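Antibody staining for doubly phosphorylated ERK divided by ERK-YFP signal, as plate z-scores, in insulin-treated and untreated cells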
# Reading the numbers: replicate 1, z-score of dpERK with insulin and replicate 2, z-score of dpERK with insulin: higher = more active ERK per ERK-YFP after insulin; replicate 1, z-score of dpERK under basal conditions: higher = more basal active ERK per ERK-YFP; replicate 1, z-score of ERK-YFP with insulin: higher = more YFP-tagged ERK signal
# In all, the deposit lists about 23,000 reagents; this is a random part of those that have a named target and a result. 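Extra replicates exist only for a retested subset of genes; insulin dose and duration not given; both raised and lowered dpERK matter.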 Names joined by + are all predicted targets of the reagent. Not given: the amount of reagent, the time to read-out.
Target gene,PubChem SID,"replicate 1, z-score of dpERK with insulin","replicate 2, z-score of dpERK with insulin","replicate 1, z-score of dpERK under basal conditions","replicate 1, z-score of ERK-YFP with insulin"
VhaAC39-2 (GeneID 42739),SID104195401,0.4,0.11,1.04,0.17
CG1394 (GeneID 32059),SID104199331,-0.07,0.27,-1.04,-0.55
CG43777 + CG43776 + CG43775,SID104183998,0.25,-0.28,1.38,-1.06
Fuca (GeneID 3772574),SID104190383,-0.28,0.29,2,0.26
Vha100-3 (GeneID 246543),SID104185552,-0.04,-0.12,0.31,-0.11
fh (GeneID 31845),SID104198222,-0.54,-0.94,-0.57,0.65
CG43124 (GeneID 12798282),SID104193659,-0.42,0.25,-0.58,0.08
S-Lap5 (GeneID 36515),SID104186524,0.71,-0.55,-0.74,-0.09
CG18518 (GeneID 34932),SID104181301,-0.2,0.68,-0.43,0.41
Prosalpha2 (GeneID 41531),SID104196590,-1.64,-4.17,-1.55,-1.55
Nuak (GeneID 41256),SID104194206,0.39,0.05,0.4,-0.32
Nuak (GeneID 41256),SID104194207,0.13,0.37,0.4,-0.21
Nuak (GeneID 41256),SID104194208,0.76,1.23,0.44,-0.07
Achl (GeneID 36605),SID104186457,0.01,-0.2,0.16,-0.14
CG18744 (GeneID 59140),SID104195173,-0.39,-0.08,-0.22,0.11
SmydA-5 (GeneID 35538),SID104184659,0,0.48,-0.07,0.16
Fdx1 (GeneID 39070),SID104190959,0.65,0.33,1.09,-0.62

Entries above whose gene name starts with S or s:
Target gene,PubChem SID,"replicate 1, z-score of dpERK with insulin","replicate 2, z-score of dpERK with insulin","replicate 1, z-score of dpERK under basal conditions","replicate 1, z-score of ERK-YFP with insulin"
S-Lap5 (GeneID 36515),SID104186524,0.71,-0.55,-0.74,-0.09
SmydA-5 (GeneID 35538),SID104184659,0,0.48,-0.07,0.16

Continued:
Target gene,PubChem SID,"replicate 1, z-score of dpERK with insulin","replicate 2, z-score of dpERK with insulin","replicate 1, z-score of dpERK under basal conditions","replicate 1, z-score of ERK-YFP with insulin"
ScpX (GeneID 44183),SID104183222,0.71,-0.02,0.8,0.29
CG15293 (GeneID 34828),SID104181711,-0.62,-0.29,-0.81,0.88
CG17036 (GeneID 34679),SID104182356,-0.17,0.02,-1.79,0.61
CG12164 (GeneID 35651),SID104185907,0.47,0.14,0.34,0
CG12164 (GeneID 35651),SID104201439,0.19,0.32,0.46,-0.5
Uck (GeneID 42894),SID104193453,-0.41,-1.05,-0.27,0.71
Uck (GeneID 42894),SID104195820,-0.8,0.37,0.48,-0.43
Cul4 (GeneID 35780),SID104187035,-1.1,-2.5,-1.76,-0.46
CG12107 (GeneID 35712),SID104185894,0.64,1.22,1.75,2.22
mRpS18A (GeneID 326141),SID104194161,-0.76,-0.1,-1.18,1.47
RpS15Ab + RpS15Aa,SID104185921,-0.19,-1.32,-1.67,-4.58
RpS15Ab + RpS15Aa,SID104199623,1.53,-0.97,-0.48,-4.09
CG8072 (GeneID 39181),SID104190752,-0.41,-0.37,0.27,0.71
fbl (GeneID 46234),SID104191678,-0.39,1.04,-0.29,0.67
CR18166 (GeneID 8673968),SID104197052,0.46,1.18,0.1,-0.47
CR18166 (GeneID 8673968),SID104197939,-0.04,1.03,1.53,0.86
MED28 (GeneID 43079),SID104195513,1.21,0.6,-0.83,-0.26
POLDIP2 (GeneID 40655),SID104191986,1.38,0.23,-0.53,1.45
CG5510 (GeneID 42872),SID104195615,-0.31,0.01,1.31,0.07
AsnS (GeneID 2768965),SID104191260,0.5,0.7,0.36,-1.25
Bug22 (GeneID 34429),SID104182634,-0.22,0.53,0.46,0.43
CG42355 (GeneID 317969),SID104187759,-0.45,-0.01,0.03,-0.44
